Experimental data: PubChem BioAssay AID1224828 (NIAID, 2016)
Shown is a random part of about 17,000 deposited reagents. 762 of them (4.5%) count as active. 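Active calls include both raised and lowered p65 entry, mostly lowered; wells with fewer than 50 cells lack a z-score.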 Raw values are not corrected between plates. Reagent sequences are not shown.

- Test: 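Find genes required for NF-kappaB p65 moving into the nucleus after LPS in mouse macrophages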 (primary screen)
- System: mouse RAW264.7 G9 macrophage reporter cells (GFP-p65, Tnf promoter-mCherry)
- Knock-down reagent: siRNA pool against mouse genes, 100 nM
- Time to read-out: 2 days siRNA transfection, then 40 min LPS before fixation
- Conditions: LPS (Salmonella minnesota R595) at 10 ng/ml
- Measured: 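Microscopy ratio of nuclear to perinuclear-ring GFP-p65 signal, scaled to the plate median; gene score is the average of two replicate robust z-scores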
- Reading the numbers: p65 translocation robust z-score: higher = more nuclear NF-kappaB p65 after LPS than the plate median; nuclear/cytoplasmic p65 ratio: higher = more nuclear NF-kappaB p65
- Call rule: 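Called active when z exceeds 3.3 or falls under -1.56 (median of Tlr4 controls), giving activity score of at least 50; no calls for control wells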
- Meaning of the calls: active = hit (p65 shift raised or lowered); inactive = no clear change

Banf1 (BAF nuclear assembly factor 1) showed p65 translocation robust z-score -0.4; nuclear/cytoplasmic p65 ratio, rep 1 = 1.37; nuclear/cytoplasmic p65 ratio, rep 2 = 1.78; low cell count flag enough cells to score; inactive.
Against Rbm15 (RNA binding motif protein 15), the values are p65 translocation robust z-score 0.09; nuclear/cytoplasmic p65 ratio, rep 1 = 1.48; nuclear/cytoplasmic p65 ratio, rep 2 = 1.58; low cell count flag enough cells to score; inactive.
Angptl1 (angiopoietin-like 1) gave p65 translocation robust z-score -0.02; nuclear/cytoplasmic p65 ratio, rep 1 = 1.62; nuclear/cytoplasmic p65 ratio, rep 2 = 1.61; low cell count flag enough cells to score; inactive.
Or4a72 (olfactory receptor family 4 subfamily A member 72) gave p65 translocation robust z-score 1.48; nuclear/cytoplasmic p65 ratio, rep 1 = 1.8; nuclear/cytoplasmic p65 ratio, rep 2 = 1.64; low cell count flag enough cells to score; inactive.
Depletion of Hnrnpll (heterogeneous nuclear ribonucleoprotein L-like) resulted in: nuclear/cytoplasmic p65 ratio, rep 1 = 1.35; nuclear/cytoplasmic p65 ratio, rep 2 = 1.48; low cell count flag fewer than 50 cells per well; well left out of scoring; inactive.
Depletion of Rgs1 (regulator of G-protein signaling 1) gave: p65 translocation robust z-score -0.59; nuclear/cytoplasmic p65 ratio, rep 1 = 1.43; nuclear/cytoplasmic p65 ratio, rep 2 = 1.22; low cell count flag enough cells to score; inactive.
After knock-down of Slc25a32, the record shows p65 translocation robust z-score 0.88; nuclear/cytoplasmic p65 ratio, rep 1 = 1.78; nuclear/cytoplasmic p65 ratio, rep 2 = 1.74; low cell count flag enough cells to score; inactive.
For Tgfbr3 (transforming growth factor, beta receptor III), the entry reads p65 translocation robust z-score -0.52; nuclear/cytoplasmic p65 ratio, rep 1 = 1.46; nuclear/cytoplasmic p65 ratio, rep 2 = 1.43; low cell count flag enough cells to score; inactive.
For Zfp354c (zinc finger protein 354C), the entry reads p65 translocation robust z-score 0.61; nuclear/cytoplasmic p65 ratio, rep 1 = 1.53; nuclear/cytoplasmic p65 ratio, rep 2 = 1.29; low cell count flag enough cells to score; inactive.
With knock-down of Tbc1d8 (TBC1 domain family, member 8) the results were p65 translocation robust z-score 0.25; nuclear/cytoplasmic p65 ratio, rep 1 = 1.44; nuclear/cytoplasmic p65 ratio, rep 2 = 1.18; low cell count flag enough cells to score; inactive.
After knock-down of Foxc1 (forkhead box C1) the results were p65 translocation robust z-score 0.07; nuclear/cytoplasmic p65 ratio, rep 1 = 1.37; nuclear/cytoplasmic p65 ratio, rep 2 = 1.45; low cell count flag enough cells to score; inactive.
Against Scarb1 (scavenger receptor class B, member 1), the entry reads p65 translocation robust z-score -0.36; nuclear/cytoplasmic p65 ratio, rep 1 = 1.44; nuclear/cytoplasmic p65 ratio, rep 2 = 1.49; low cell count flag enough cells to score; inactive.
Dkk1 (dickkopf WNT signaling pathway inhibitor 1) showed p65 translocation robust z-score -1.68; nuclear/cytoplasmic p65 ratio, rep 1 = 1.25; nuclear/cytoplasmic p65 ratio, rep 2 = 1.14; low cell count flag enough cells to score; active.
With knock-down of Sema4b, the screen gave p65 translocation robust z-score -0.34; nuclear/cytoplasmic p65 ratio, rep 1 = 1.36; nuclear/cytoplasmic p65 ratio, rep 2 = 1.21; low cell count flag enough cells to score; inactive.
